US3981982A, “Radioimmunoassay for determining the digoxin content of a sample” (Abbott Laboratories, priority 1974, dated 1976)

System: digoxin antibody
Assay: Precision of digoxin determination, five laboratories (Table II)
Design: species or system rabbits

C[C@H]1O[C@@H](O[C@H]2[C@@H](O)C[C@H](O[C@H]3[C@@H](O)C[C@H](O[C@H]4CC[C@@]5(C)[C@H](CC[C@@H]6[C@@H]5C[C@@H](O)[C@]5(C)[C@@H](C7=CC(=O)OC7)CC[C@]65O)C4)O[C@@H]3C)O[C@@H]2C)C[C@H](O)[C@@H]1O [digoxin]
Mean (High Sample, Combined Results, 43 determinations): 3.71 ng/mL | Mean (High Sample, Laboratory 1, 19 determinations): 3.70 ng/mL | Mean (High Sample, Laboratory 2, 6 determinations): 3.70 ng/mL | Mean (High Sample, Laboratory 3, 5 determinations): 3.70 ng/mL | Mean (High Sample, Laboratory 4, 6 determinations): 3.40 ng/mL | Mean (High Sample, Laboratory 5, 7 determinations): 3.90 ng/mL | Mean (Low Sample, Combined Results, 43 determinations): 0.61 ng/mL | Mean (Low Sample, Laboratory 1, 19 determinations): 0.62 ng/mL | Mean (Low Sample, Laboratory 2, 6 determinations): 0.63 ng/mL | Mean (Low Sample, Laboratory 3, 5 determinations): 0.64 ng/mL | Mean (Low Sample, Laboratory 4, 6 determinations): 0.60 ng/mL | Mean (Low Sample, Laboratory 5, 7 determinations): 0.57 ng/mL | Mean (Medium Sample, Combined Results, 43 determinations): 1.97 ng/mL | Mean (Medium Sample, Laboratory 1, 19 determinations): 2.00 ng/mL | Mean (Medium Sample, Laboratory 2, 6 determinations): 1.90 ng/mL | Mean (Medium Sample, Laboratory 3, 5 determinations): 2.00 ng/mL | Mean (Medium Sample, Laboratory 4, 6 determinations): 1.90 ng/mL | Mean (Medium Sample, Laboratory 5, 7 determinations): 2.00 ng/mL
